Source: patent publication US20240270729A1, “(THI)OXAZOLINE PESTICIDES” (ELANCO TIERGESUNDHEIT AG, priority 2021, published 2024)
Some entries share one result that the patent states for a list of compounds.

System: Rhipicephalus sanguineus
Assay: In vitro evaluation of contact activity against adult brown dog ticks
Details: adult males and females, coated glass vial contact; after 48 h

Compound: Cc1cc(C2=NOC(c3cc(C(F)(F)F)cc(Br)n3)(C(F)(F)F)C2)ccc1C(=O)NCC(=O)NCC(F)(F)F (single isomer, unassigned) [Example 1.6]
- EC50, acaricidal activity (dead or moribund ticks): < 5 μg/cm^2

Compound: Cc1cc(C2=NOC(c3cc(C(F)(F)F)cc(C(F)(F)F)n3)(C(F)(F)F)C2)ccc1C(=O)NCC(=O)NCC(F)(F)F (single isomer, unassigned) [Example 1.7]
- EC50, acaricidal activity (dead or moribund ticks): < 5 μg/cm^2

Compound: COc1cc(C(F)(F)F)cc(C2(C(F)(F)F)CC(c3ccc(C(=O)NCC(=O)NCC(F)(F)F)c(C)c3)=NO2)n1 (single isomer, unassigned) [Example 1.10]
- EC50, acaricidal activity (dead or moribund ticks): < 5 μg/cm^2
